Test results taken from article PMC8652205.
These are yes or no findings as the source states them, for the method shown. In cells and extracts the contact can be indirect. Binding calls can cover weak binding; strength is not graded here.

Chains of the proteins cited; added tags and fusions are not shown. Lines headed by an entry give the natural chain unless they say otherwise; changes in a name come on top.
UniProt O95229: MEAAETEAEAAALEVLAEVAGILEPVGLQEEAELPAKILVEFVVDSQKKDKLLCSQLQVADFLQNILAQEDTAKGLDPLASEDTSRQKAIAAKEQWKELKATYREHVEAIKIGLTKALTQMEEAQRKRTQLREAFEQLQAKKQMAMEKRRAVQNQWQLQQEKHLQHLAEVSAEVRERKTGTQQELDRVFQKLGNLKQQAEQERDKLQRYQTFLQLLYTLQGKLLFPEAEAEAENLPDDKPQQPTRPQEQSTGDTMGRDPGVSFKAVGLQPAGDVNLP
UniProt Q00987: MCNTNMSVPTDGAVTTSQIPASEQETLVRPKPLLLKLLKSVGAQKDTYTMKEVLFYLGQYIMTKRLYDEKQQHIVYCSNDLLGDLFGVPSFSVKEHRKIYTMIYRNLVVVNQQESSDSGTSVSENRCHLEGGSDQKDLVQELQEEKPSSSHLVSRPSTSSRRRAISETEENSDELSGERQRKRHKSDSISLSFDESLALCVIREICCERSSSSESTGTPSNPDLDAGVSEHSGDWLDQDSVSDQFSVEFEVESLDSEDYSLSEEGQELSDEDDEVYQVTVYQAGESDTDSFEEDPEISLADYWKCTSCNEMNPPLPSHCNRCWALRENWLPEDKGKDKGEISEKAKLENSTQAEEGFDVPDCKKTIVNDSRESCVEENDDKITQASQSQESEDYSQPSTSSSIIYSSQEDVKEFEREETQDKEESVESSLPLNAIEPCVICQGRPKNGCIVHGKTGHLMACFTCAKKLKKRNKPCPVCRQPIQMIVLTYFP

Target: ZW10-interacting kinetochore protein 1 (human (in lysates of human pancreatic cancer cell lines; line not stated for the co-IP)) (UniProt O95229)
Test: co-IP; anti-ZWINT antibody (1 ug) or anti-rabbit IgG added to protein lysates (500 ug), 4 °C overnight; protein A/G PLUS-Agarose beads 6 h at 4 °C; western blot with anti-p53 and anti-MDM2

**Q.** How did the binding turn out when MDM2 (from UniProt Q00987 1-491) was run?
**A.** Its binding is “binds”.
